From US7649002B2, “(3,5-dimethylpiperidin-1yl)(4-phenylpyrrolidin-3-yl)methanone derivatives as MCR4 agonists” (Pfizer Inc, priority 2004, dated 2010)
Structures can show the parent of a compound that is named as a salt. Some results were stated once for a whole list of compounds, not compound by compound.

Chains of the proteins cited; added tags and fusions are not shown. Lines headed by an entry give the natural chain unless they say otherwise; changes in a name come on top.
UniProt P41968: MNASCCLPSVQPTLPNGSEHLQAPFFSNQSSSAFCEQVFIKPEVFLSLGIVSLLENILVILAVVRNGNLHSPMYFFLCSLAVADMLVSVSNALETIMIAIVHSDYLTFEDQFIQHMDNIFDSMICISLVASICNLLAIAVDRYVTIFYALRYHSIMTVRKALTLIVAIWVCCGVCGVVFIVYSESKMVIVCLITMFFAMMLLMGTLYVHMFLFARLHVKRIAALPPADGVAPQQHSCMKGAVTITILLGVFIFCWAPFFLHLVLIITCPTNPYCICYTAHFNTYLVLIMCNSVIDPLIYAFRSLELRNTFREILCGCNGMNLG
UniProt P32245, whole entry: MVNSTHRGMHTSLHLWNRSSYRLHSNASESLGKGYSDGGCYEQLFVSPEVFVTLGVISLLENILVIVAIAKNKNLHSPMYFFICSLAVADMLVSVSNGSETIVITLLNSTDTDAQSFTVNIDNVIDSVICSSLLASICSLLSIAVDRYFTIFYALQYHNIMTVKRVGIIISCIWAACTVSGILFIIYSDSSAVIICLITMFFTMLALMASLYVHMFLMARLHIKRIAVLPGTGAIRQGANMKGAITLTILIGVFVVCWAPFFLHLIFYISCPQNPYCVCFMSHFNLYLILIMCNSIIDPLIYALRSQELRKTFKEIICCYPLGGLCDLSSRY
UniProt Q01726: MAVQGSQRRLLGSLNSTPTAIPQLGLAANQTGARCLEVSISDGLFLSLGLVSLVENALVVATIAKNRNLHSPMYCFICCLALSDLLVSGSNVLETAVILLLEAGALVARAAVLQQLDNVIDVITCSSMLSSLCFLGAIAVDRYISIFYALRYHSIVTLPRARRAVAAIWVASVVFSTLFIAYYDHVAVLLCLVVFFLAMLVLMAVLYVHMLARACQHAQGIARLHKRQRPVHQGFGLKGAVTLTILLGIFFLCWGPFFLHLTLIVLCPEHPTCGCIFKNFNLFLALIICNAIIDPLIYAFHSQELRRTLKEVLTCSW

What was measured:
Assay type in all cases: cell-based
human MCR3 receptor = target: T1, human MCR3 receptor (Homo sapiens, UniProt P41968); test: MCR3 standard functional assay (Protocol B): cAMP AlphaScreen in HEK cells; settings: functional potencies
T1 construct: expressed in transfected cells
Protocol: (§1) Stimulation of adenylate cyclase following receptor activation is a widely used measure of functional activity for a number of receptor systems. The functional assay to measure cyclic AMP (cAMP) utilises human embryonic kidney (HEK) cells that stably express the human melanocortin MCR1, MCR3 or MCR4 receptor. Activation of MCR1, MCR3 or MCR4 receptors stimulates adenylate cyclase, generating cAMP, which is measured using AlphaScreen™ (PerkinElmer assay kits.
(§2) The AlphaScreen™ cAMP assay kit consists of ‘donor beads’, ‘acceptor beads’, and biotinylated cAMP which links the different beads together. Excitation of this linked complex at […] in the Fusion™-α microplate analyser results in light emission between […].
(§3) (i) MCR1. MCR3 and MCR4 Standard Functional Assay Methodology [Assay Protocol A, B AND C Respectively]
(§4) Determination of activity against the human MCR1, MCR3 and MCR4 receptor subtypes was carried out for compounds according to the present invention using three immortalised human embryonic kidney (HEK) cell lines that had been biologically engineered to express the human melanocortin MCR1, MCR3 or MCR4 receptor subtypes. […]
(§5) Such-compound-induced activation of these MCR1, MCR3 or MCR4 receptors lead to the stimulation of the cellular enzyme adenylate cyclase, which in turn lead to the cellular generation, and intra-cellular accumulation, of cyclic adenosine monophosphate (cAMP). […] Intracellular levels of cAMP were quantified using the commercially available AlphaScreen™ assay kits from PerkinElmer. […]
(§6) The quantity of intracellular cAMP produced by compound-induced activation of the MCR1, MCR3 and MCR4 receptors in these three cell lines was measured using a Fusion™-α microplate analyser set to stimulate at a wavelength of 680 nm and to measure the energy emitted at wave lengths between […]. Compound-induced increases in MCR1, MCR3 or MCR4 receptor activation were subsequently quantified as a decrease in the quantity of light emitted at wavelengths between 520-620 nM. […]

human MCR4 receptor = target: T2, human MCR4 receptor (Homo sapiens, UniProt P32245); test: MCR4 improved functional assay (Protocol E): CHO-K1-MC4R-CRE-β-lactamase reporter; settings: versus both MCR1 and MCR5
T2 construct: expressed in transfected cells
From the text: (ii) MCR5 Standard Functional Assay Methodology and MCR4 Improved Functional Assay Methodology [Assay Protocol D and E Respectively] […] These cell lines were engineered using protocols akin to those outlined by Zaccolo et al (Zaccolo, M., (2000) Nature, 2(1); 25-29). Compound-induced activation of the MCR5 or MCR4 receptors in these two cell lines stimulated the production, and intracellular accumulation, of the enzyme β-lactamase. The quantity of β-lactamase enzyme produced was directly proportional to the degree to which the test compound activated the MCR5 or MCR4 receptors present on these cells and was quantified using the P-lactamase gene reporter analysis kit that is commercially available from Invitrogen Life Technologies. An in-depth description of this technology and assay protocols are available from the Invitrogen web site (www.invitrogen.com). The protocol listed below provides a summary of that assay methodology. The quantity of β-lactamase enzyme produced by compound-induced activation of the MCR5 or MCR4 receptors expressed in these cell lines was quantified using a LjI Biosystems Analyst™ HT 96.384 plate reader set to excite at a wave length of 405 nm, and measure the energy emitted at wave lengths of 450 nm and 530 nm. Cellular responses were quantified by dividing the measured energy emitted at a wavelength of 450 nm by the measured energy emitted at a wavelength of 530 nm. […] CCF4-AM was dissolved in 100% DMSO to give a final solution concentration of 1 mM. This solution was termed Solution A. Probenecid was dissolved in 200 mM NaOH to give a final solution concentration of 200 mM. This solution was termed Solution D. Composition of the β-lactamase assay dye solution: for 1072 μL of assay dye solution combine: 12 μL of Solution A, 60 μL of Solution B, 925 μL of Solution C and 75 μL of Solution D. […] Cells were grown in T225 vent cap flasks containing 50 ml of growth medium and maintained in a cell incubator at a temperature of 37° C. and in an environment containing 5% CO2. The composition of the growth medium for the CHO-K1-MC5R-CRE-β-lactamase was 90% v/v DMEM supplemented with; Glutamax-1, 25 mM HEPES, 10% v/v foetal calf serum (FCS), 1 mM sodium pyruvate, 0.1 mM non essential amino acids and 800 μg/ml genetic in. For the CHO-K1-MC4R-CRE-β-lactamase this growth media was further supplemented with […] Zeocin. Cells were harvested when they reached 80-90% confluency by first removing the existing growth medium and then washing with PBS that had been pre-warmed to a temperature of 37° C. This PBS was then removed and 5 ml of cell dissociation fluid added to the flask. These cells were incubated for 5 minutes in a cell incubator set at a temperature of 37° C. and in an environment containing 5% CO2 to detach the cells. When cells were detached, pre-warmed growth media was added, the cells re-suspended and mixed gently to achieve a single cell suspension by pipetting. This cell suspension was then used for experimentation, or transferred into a new T225 flask to perpetuate the cell culture. […] For each assay the cell plates were then retuned to a cell incubator maintained at a temperature of 37° C. and in an environment containing 5% CO2 overnight before performing the assay on the second assay day. […] For the MCR4 improved functional assay methodology the solution of cyclohexamide was not added. Subsequently, 10 μL of the test compound solution was transferred to the assay plate. […]

human MCR1 receptor = target: T3, human MCR1 receptor (Homo sapiens, UniProt Q01726); test: MCR1 standard functional assay (Protocol A): cAMP AlphaScreen in HEK cells; settings: functional potencies, Protocols A and C or E
T3 construct: expressed in transfected cells
Protocol: as §1, §2, §3, §4, §5, §6

Compound | selectivity for MCR4 over MCR3 (human MCR3 receptor) | selectivity for the MCR4 receptor as compared with the MCR1 and MCR5 receptors (human MCR4 receptor) | selectivity for MCR4 over MCR1 (human MCR1 receptor)
C[C@@H]1CN(C(=O)[C@@H]2CN(C(C)(C)C)C[C@H]2c2ccc(F)cc2F)C[C@H](C)[C@@]1(O)c1ccccc1 [Example 1, (3R,4R,5S)-1-{[(3S,4R)-1-tert-Butyl-4-(24-difluorophenyl)pyrrolidin-3-yl]carbonyl}-3,5-dimethyl-4-phenylpiperidin-4-ol] | greater than 30 times |  | 
CCN1C[C@@H](C(=O)N2C[C@@H](C)[C@](O)(C3CCCCC3)[C@@H](C)C2)[C@H](c2ccc(F)cc2F)C1 (relative stereo) [Example 2, (3R,4R,5S)-4-Cyclohexyl-1-{[(3S*,4R*)4-(2,4-difluorophenyl)-1-ethylpyrrolidin-3-yl]carbonyl}-3,5-dimethylpiperidin-4-ol] | greater than 30 times |  | 
CC(C)N1C[C@@H](C(=O)N2C[C@@H](C)[C@](O)(c3ccc(Cl)cc3)[C@@H](C)C2)[C@H](c2ccc(F)cc2F)C1 [Example 50, (3R,4R,5S)-4-(4-chlorophenyl)-1-{[(3S,4R)-4-(2,4-difluorophenyl)-1-isopropylpyrrolidin-3-yl]carbonyl}-3,5-dimethylpiperidin-4-ol hydrochloride] |  | greater than 10 times | greater than 10 times
C[C@@H]1CN(C(=O)[C@@H]2CN(c3cnccn3)C[C@H]2c2ccc(F)cc2F)C[C@H](C)[C@@]1(O)c1ccccc1.Cl [Example 33, (3R,4R,5S)-1-{[(3S,4R)-4-(2,4-Difluorophenyl)-1-pyrazin-2-ylpyrrolidin-3-yl]carbonyl}-3,5-dimethyl-4-phenylpiperidin-4-ol hydrochloride] |  | greater than 10 times | greater than 10 times
C[C@@H]1CN(C(=O)[C@@H]2CN(C(C)(C)C)C[C@H]2c2ccc(F)cc2F)C[C@H](C)[C@@]1(O)c1c(F)cccc1F.Cl [Example 17, (3R,4R,5S)-1-[{(3S,4R)-1-tert-butyl-4-(2,4-difluorophenyl)pyrrolidin-3-yl]carbonyl}-4-(2,6-difluorophenyl)-3,5-dimethylpiperidin-4-ol hydrochloride] |  | greater than 10 times | 
CCCC[C@@]1(O)[C@H](C)CN(C(=O)[C@@H]2CN(C(C)(C)C)C[C@H]2c2ccc(F)cc2F)C[C@@H]1C [Example 3, (3R,4R,5S)-4-Butyl-1-{[(3S,4R)-1-tert-butyl-4-(2,4-difluorophenyl)pyrrolidin-3-yl]carbonyl}-3,5-dimethylpiperidin-4-ol] | greater than 30 times |  | 
